These are yes or no findings as the source states them, for the method shown. Binding seen in cells or lysates may run through a third protein. These calls come from enrichment with a bait or labelling near it, and not all partners need be listed. Where a sequence is shown, tags or fusion partners need not be part of it.
Molecular target: T1, GST-Pdr1 activation domain (amino acids 966-1068) (S. cerevisiae) (UniProt P12383)
T1 sequence: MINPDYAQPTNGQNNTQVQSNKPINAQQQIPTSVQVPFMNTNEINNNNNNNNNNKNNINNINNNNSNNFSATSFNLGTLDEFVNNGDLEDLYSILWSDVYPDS
Test: affinity purification with mass spectrometry; glutathione-Sepharose-bound GST-Pdr1-AD incubated 3 h at 4°C with yeast extract (lysis buffer 50 mM Tris-HCl pH 8.0, 400 mM NaCl) pre-incubated with GST beads; washes with 250 mM KCl buffer, then 150 mM NaCl; elution with 0.3% sarkosyl; gel bands identified by LC-MS/MS; only the target purified

The chains behind the UniProt entries cited, without tags or fusion partners.
UniProt P19659: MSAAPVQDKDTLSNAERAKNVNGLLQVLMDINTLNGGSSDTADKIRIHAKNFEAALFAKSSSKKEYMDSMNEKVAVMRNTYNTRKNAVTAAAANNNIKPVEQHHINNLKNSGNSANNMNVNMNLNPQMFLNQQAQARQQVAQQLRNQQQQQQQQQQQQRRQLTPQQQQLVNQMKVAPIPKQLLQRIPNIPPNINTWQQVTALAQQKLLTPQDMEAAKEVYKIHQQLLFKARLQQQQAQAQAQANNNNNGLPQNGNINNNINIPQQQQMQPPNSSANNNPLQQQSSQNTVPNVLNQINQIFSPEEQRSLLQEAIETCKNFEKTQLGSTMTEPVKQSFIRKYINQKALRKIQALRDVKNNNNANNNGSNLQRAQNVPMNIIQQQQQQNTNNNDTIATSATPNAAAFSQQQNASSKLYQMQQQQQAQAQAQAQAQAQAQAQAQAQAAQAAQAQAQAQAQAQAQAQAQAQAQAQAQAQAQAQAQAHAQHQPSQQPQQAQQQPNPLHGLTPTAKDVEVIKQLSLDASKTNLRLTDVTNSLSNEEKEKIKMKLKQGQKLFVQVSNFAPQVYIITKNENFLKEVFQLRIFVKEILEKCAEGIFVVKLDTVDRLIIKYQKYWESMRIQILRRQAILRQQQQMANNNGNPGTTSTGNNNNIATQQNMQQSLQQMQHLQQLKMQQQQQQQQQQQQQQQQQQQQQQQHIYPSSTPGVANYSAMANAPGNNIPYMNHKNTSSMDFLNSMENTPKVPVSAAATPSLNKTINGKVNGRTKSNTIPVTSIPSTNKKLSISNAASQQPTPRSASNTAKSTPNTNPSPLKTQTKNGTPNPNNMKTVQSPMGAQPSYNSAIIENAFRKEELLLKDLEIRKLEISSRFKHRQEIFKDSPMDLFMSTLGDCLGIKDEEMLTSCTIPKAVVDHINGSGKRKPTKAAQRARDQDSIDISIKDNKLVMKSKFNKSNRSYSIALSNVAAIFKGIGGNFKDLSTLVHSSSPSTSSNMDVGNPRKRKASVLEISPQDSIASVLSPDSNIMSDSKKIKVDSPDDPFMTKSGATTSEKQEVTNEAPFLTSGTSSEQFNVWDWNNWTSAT
UniProt Q04636: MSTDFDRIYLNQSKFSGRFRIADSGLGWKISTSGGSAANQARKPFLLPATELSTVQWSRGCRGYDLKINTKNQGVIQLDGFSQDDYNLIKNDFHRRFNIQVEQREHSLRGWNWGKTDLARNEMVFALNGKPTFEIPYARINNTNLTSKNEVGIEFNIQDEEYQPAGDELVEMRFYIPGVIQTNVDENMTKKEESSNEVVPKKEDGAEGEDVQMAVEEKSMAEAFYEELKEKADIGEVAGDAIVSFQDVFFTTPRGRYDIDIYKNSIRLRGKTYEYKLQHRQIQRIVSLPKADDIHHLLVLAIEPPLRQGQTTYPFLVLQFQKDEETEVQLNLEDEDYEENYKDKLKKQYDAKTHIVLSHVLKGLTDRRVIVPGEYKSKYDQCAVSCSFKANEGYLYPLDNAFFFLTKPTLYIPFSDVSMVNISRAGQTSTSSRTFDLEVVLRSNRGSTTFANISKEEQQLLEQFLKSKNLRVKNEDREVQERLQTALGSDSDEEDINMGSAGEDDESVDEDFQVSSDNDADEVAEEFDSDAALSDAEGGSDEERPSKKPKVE

Substance	binding
Gal11 subunit of Mediator (from UniProt P19659 1-1081)	binds
Pob3 subunit of FACT (from UniProt Q04636 1-552)	binds
